Measurements reported in PubChem BioAssay AID1347076 (National Center for Advancing Translational Sciences (NCATS), 2019).
About 13,000 (3.2%) of roughly 400,000 compounds were called active. The shares of active, inactive and inconclusive entries below differ from those in the screen. The call rests on the fitted dose curve; in most records, active means well fitted cell-killing curve with a large enough effect; inconclusive means small, poorly fitted or top-dose-only effect, or effect the other way; inactive means flat fitted curve, though single readings scatter. Where the call is inconclusive, the potency comes from a doubtful curve fit.

Assay: qHTS assay for MDR1-selective chemotherapeutics: Primary screen using the drug-selected MDR subline cells KB-V1; further: nearly all actives have a fitted effect of over 60% in size
Settings: KB-V1 MDR cells viability, CellTiter-Glo, 72 h; activity change, negative = cytotoxicity: at 46.1 µM (top of the series)
In short: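 KB-V1 cells (P-gp-expressing MDR subline of KB-3-1) in phenol-red-free DMEM with 10% FBS were exposed to library compounds over a concentration series for 72 h at 37 degrees C. Viability read by CellTiter-Glo luminescence; concentration-effect curves fitted after normalization.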
On the % scale 0 is the no-effect control and ±100 the full control effect; potency means the concentration at half of the fitted maximal effect.

Structure (SMILES) | Potency | activity change, negative = cytotoxicity
COc1ccc(C(=O)N2CCC(n3nnc4cc(F)ccc43)CC2)cc1OC | inconclusive: 29.1 µM [cytotoxic, single point] | 
CN1CCN(C(=O)c2ccc(CNS(=O)(=O)c3ccc(F)c(Cl)c3)cc2)CC1 |  | inactive: 12.1%
COc1ccc(C(=O)COc2ncnc3cc(Cl)ccc23)cc1 |  | inconclusive: -6.02%
Cc1ccc(Cl)cc1N1C(=O)CC(Sc2ccccc2N)C1=O (stereo not given) | inconclusive: 23.1 µM [cytotoxic, single point] | 
COc1ccc(CNC(=O)C[C@H]2C[C@H](C(=O)N(C(C)C)C(C)C)[C@@]3(C)c4[nH]c5cc(-c6ccco6)ccc5c4CCN3C2=O)cc1OC | inconclusive: 20.6 µM [cytotoxic, single point] | 
Cc1cc(S(=O)(=O)Nc2ccc(C(=O)NCCCN3CCCC3=O)cc2)ccc1F |  | inactive: 12.9%
O=C(Oc1cccc2cccnc12)c1ccco1 | inconclusive: 29.1 µM [cytotoxic, single point] | 
CN(C)CCCCCCCCCCC(=O)/C=N/O | inconclusive: 23.1 µM [cytotoxic, single point] | 
O=C(/C=C/c1ccccc1)/C=C/c1ccccc1 | inconclusive: 29.1 µM [cytotoxic, single point] | 
S=c1nc(-c2ccc(Br)cc2)[nH]c2ccccc12 |  | inactive: 16%
S=C(Nc1cccc(Cl)c1)Nc1cccc2cnccc12 | active: 23.1 µM | 
O=C(CC1C(=O)NCCN1Cc1cccc(C(F)(F)F)c1)NCCCOc1cccnc1 (stereo not given) | inconclusive: 18.4 µM [rising, single point] | 
Cc1sc2ncnc(Sc3ccccc3C(=O)Nc3ccc(Br)cc3)c2c1C | inconclusive: 16.4 µM [cytotoxic, partial curve] | 
Cc1ccc(NS(=O)(=O)c2cc(C(=O)Nc3cccc([N+](=O)[O-])c3)ccc2C)cc1 | active: 14.6 µM | 
O=C(NN1C(=O)NC2(CCCCC2)C1=O)c1ccc(-c2ccccc2Cl)o1 | inconclusive: 16.4 µM [rising, single point] | 
O=C(O)c1cc([N+](=O)[O-])c(Sc2nc3ccccc3[nH]2)c([N+](=O)[O-])c1 |  | inconclusive: 37.4%
Nc1ccccc1N1C(=O)c2cccc3cccc(c23)C1=O | inconclusive: 29.1 µM [cytotoxic, single point] | 
Cc1ccc(-c2[nH]ncc2/C=N/n2c(C)nc3ccccc3c2=O)cc1 |  | inactive: -26.7%
O=C1c2ccccc2-c2ccccc2NC1O (stereo not given) |  | inactive: 4.64%
COc1cccc(C2CC(c3ccc(NS(C)(=O)=O)cc3)=NN2C(=O)c2ccccc2)c1OC (stereo not given) | inconclusive: 18.4 µM [cytotoxic, single point] | 
Cc1cc(S(=O)(=O)NCCCN2CCOCC2)c(C)cc1Cl | inconclusive: 29.1 µM [cytotoxic, single point] | 
Cc1ccc([C@@H]2C[C@H]3[C@@H](CN2S(=O)(=O)c2ccc(Cl)cc2)C(=O)C[C@@H](c2cccc4ccccc24)N3S(=O)(=O)c2ccc(C)cc2)cc1 |  | inactive: 6.55%
CC(C)c1ccc(CN2CCC(n3nccc3NC(=O)C3CCCC3)CC2)cc1 | active: 5.17 µM | 

Structure (SMILES) | Potency | activity change, negative = cytotoxicity
Cc1ccc(-c2nnc(SCC(=O)Nc3ccccc3N3CCOCC3)o2)cc1 | active: 13 µM | 
O=C(NCC1CCCO1)C1c2ccccc2C(=O)N1C1CCCCCCC1 (stereo not given) | active: 7.31 µM | 
CC(C)(C)NC(=O)C(c1c[nH]c2ccccc12)N(C(=O)Cn1nnc(-c2ccc(F)cc2)n1)c1cccc(O)c1 (stereo not given) |  | inactive: -7.04%
C=C(C)COc1ccc(-c2nc(N)ncc2-c2ccc(Cl)cc2)c(O)c1 | active: 23.1 µM | 
Cc1ccc(NC(=O)CCC(=O)NNS(=O)(=O)c2ccccc2)cc1C | inconclusive: 0.092 µM [rising, full curve] | 
O=[N+]([O-])c1ccc(C2=CSC3=NCCN23)cc1 | inconclusive: 0.0052 µM [rising, full curve] | 
O=C(Cc1c(F)cccc1Cl)Nc1ccncc1 | inconclusive: 29.1 µM [cytotoxic, single point] | 
Cn1c(=O)c2c(nc(NCCCCO)n2Cc2ccccc2Cl)n(C)c1=O |  | inactive: -7.41%
Clc1ccc(-c2nnc3c4ccccc4nc(N4CCOCC4)n23)cc1Cl | active: 2.59 µM | 
CC(=O)Nc1cc(C(=O)NCc2ccc(F)cc2)ccc1S(=O)(=O)c1ccc(C)cc1 |  | inconclusive: -9.61%
CC(C)(C)OC(=O)N1CCCN(C(=O)Nc2cccc(Cl)c2)CC1 | inconclusive: 29.1 µM [cytotoxic, single point] | 
CC1(C)Cc2cccc(OCC(=O)OCC(=O)NCc3ccccc3)c2O1 | inconclusive: 18.4 µM [rising, partial curve, poor fit] | 
CN1/C(=C/C2CC(=O)N(c3cccc4ccccc34)C2=O)C(C)(C)c2ccccc21 (stereo not given) |  | inactive: -21.2%
Cc1noc(C)c1S(=O)(=O)Nc1ccc2c(c1)CC(=O)N([C@H](C)CO)C[C@H](C)[C@H](CN(C)S(=O)(=O)c1ccc(F)cc1)O2 | inconclusive: 23.1 µM [rising, single point] | 
Cc1ccc2c(=O)cc(C(=O)Nc3ccc(S(=O)(=O)N4CCCCC4C)cc3)oc2c1C (stereo not given) | inconclusive: 20.6 µM [rising, single point] | 
Oc1ccccc1/C=N/c1c(-c2ccco2)nc2ccccn12 | inconclusive: 16.4 µM [cytotoxic, single point] | 
CC(C)N(Cc1nccn1C)C(=O)c1cc(COc2ccc(-n3cncn3)cc2)on1 | inconclusive: 29.1 µM [cytotoxic, single point] | 
CC1CC2(C)CC(C)C1(COC(=O)Nc1ccccc1)CO2 (stereo not given) | inconclusive: 29.1 µM [cytotoxic, single point] | 
O=C(Nc1ncc(Cc2cccc(Cl)c2)s1)c1cccs1 | active: 13 µM | 
O=C(c1cc([N+](=O)[O-])ccc1Cl)N1CCN(c2ccccn2)CC1 | inconclusive: 25.9 µM [cytotoxic, single point] | 
O=C(c1ccccn1)N1CCN(S(=O)(=O)c2ccc3ccccc3c2)CC1 | inconclusive: 11.6 µM [cytotoxic, partial curve] | 
CN(C)CCn1cnc2c(c1=N)C(c1ccccc1)c1ccc3ccccc3c1O2 (stereo not given) | inconclusive: 23.1 µM [cytotoxic, single point] | 

An excerpt of these results, field by field:
Nc1ccccc1N1C(=O)c2cccc3cccc(c23)C1=O
  Potency: inconclusive: 29.1 µM [cytotoxic, single point]
Cc1ccc(-c2[nH]ncc2/C=N/n2c(C)nc3ccccc3c2=O)cc1
  activity change, negative = cytotoxicity: inactive: -26.7%
O=C1c2ccccc2-c2ccccc2NC1O (stereo not given)
  activity change, negative = cytotoxicity: inactive: 4.64%
